# Library screening results

Sequences of proteins named here, by UniProt entry; tags and fusion partners are left off.
UniProt E9BF75, entry or part of it: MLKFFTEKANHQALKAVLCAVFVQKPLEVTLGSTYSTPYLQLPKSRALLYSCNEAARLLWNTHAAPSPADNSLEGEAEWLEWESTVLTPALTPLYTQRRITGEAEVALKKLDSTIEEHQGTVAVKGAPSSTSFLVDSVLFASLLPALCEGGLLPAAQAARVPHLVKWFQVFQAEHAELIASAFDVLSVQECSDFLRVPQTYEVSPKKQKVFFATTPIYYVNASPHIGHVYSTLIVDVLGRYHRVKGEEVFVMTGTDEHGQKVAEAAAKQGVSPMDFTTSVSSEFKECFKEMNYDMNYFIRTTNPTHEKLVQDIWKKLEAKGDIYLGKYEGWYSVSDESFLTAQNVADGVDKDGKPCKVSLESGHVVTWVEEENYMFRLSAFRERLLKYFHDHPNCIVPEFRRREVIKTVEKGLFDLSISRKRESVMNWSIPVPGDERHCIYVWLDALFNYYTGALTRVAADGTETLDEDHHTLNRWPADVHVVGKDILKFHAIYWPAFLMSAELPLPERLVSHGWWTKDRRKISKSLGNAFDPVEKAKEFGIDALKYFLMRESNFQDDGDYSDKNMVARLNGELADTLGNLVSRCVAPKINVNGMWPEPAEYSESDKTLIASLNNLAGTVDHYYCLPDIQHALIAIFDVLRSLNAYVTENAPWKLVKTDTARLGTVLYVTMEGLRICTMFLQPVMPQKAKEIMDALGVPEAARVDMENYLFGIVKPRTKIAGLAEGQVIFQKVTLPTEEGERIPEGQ

The values are deposited in ChEMBL (CHEMBL3988442, “University of Dundee, Small-Polar-MMV Screening Library” (2021)).

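Primary screen of methionyl-tRNA synthetase; the read-out is not stated. Target: Methionyl-tRNA synthetase (putative), Leishmania donovani (UniProt E9BF75). The test concentration is not given. The values are filed as inhibition. Of about 68,000 compounds tested this way, about 24 (0.035%) reached 50% or more in at least one test.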

All values are in %. The record does not define 0% and 100%; most values in the screen are far below 50% and negative numbers occur (in some assays of this library far below -100). Compounds were drawn at random from those tested, without regard to their results.

Compound	Inhibition
CC(C)OCc1cccc(CNc2cnn(C)c(=O)c2Cl)c1	21.1
CCN(Cc1nnnn1C1CC1)c1cc(C)ccc1C	-4.178
CC(=O)N(CCc1ccccc1)CC(=O)NC1(C#N)CC1	7.625
COc1ccc(C(=O)N2C[C@@H](O)[C@H](NCCc3ncccc3C)C2)cc1	17.14
N#Cc1cnn(C(=O)COc2ccccc2F)c1N	11.98
Cc1c(C(=O)NCCCC(N)=O)sc2ccc(F)cc12	21.55
CC(C)=CCN(C)C1CCCN(Cc2noc(C)n2)C1 (configuration not stated)	9.206
CN(Cc1nccn1CC(F)(F)F)C(=O)c1cccc(C#N)c1	11.27
CN(Cc1nnc(C2CC2)o1)C1CCN(CCCc2cnn(C)c2)C1 (configuration not stated)	4.895
Cc1noc(C)c1CCCNC(=O)C1CCN(C(C)C)CC1	17.83
CCN(CC)CCNC(=O)C(C)OCC(F)(F)F (configuration not stated)	1.394
O=C(c1cc(COc2ccc3c(c2)OCO3)[nH]n1)N1CCCO1	17.73
COc1ccc(-c2nccn2CCN2CCCCC2)c(OC)c1OC	6.597
O=C(NCC1CC1)C1CCC2(CCN(C(=O)c3ccncc3)CC2)O1 (configuration not stated)	3.526
Cc1ncccc1CNC(CCO)C1CCCCC1 (configuration not stated)	11.85
CCN1CCC(CNC(=O)C(c2ccccc2F)N(C)C)(N(C)C)CC1 (configuration not stated)	-8.02
CN(Cc1ccccn1)C(=O)Nc1cc(C(F)(F)F)c[nH]c1=O	12.78
COCCn1cc2c(n1)C(CNCc1ccco1)OCC2 (configuration not stated)	6.667
CCc1cc(CNC(=O)N2Cc3ccccc3N(C)CC2C)[nH]n1 (configuration not stated)	7.246
CCn1nc(C(C)C)cc1C(=O)NCCCOC	8.85
CN(C)c1nc2sc(C(=O)N3CCN(C(=O)OC(C)(C)C)CC3)cc2s1	4.202
Cc1nc(C)n(CCCNc2ncnc3onc(C)c23)n1	19.73
Cc1nc(C)n(CC2CCCN(Cc3ccccc3C#N)C2)n1 (configuration not stated)	17.78
Cc1cccc(CN2CCC(NCC3CNc4cc(C)nn4C3)CC2)c1 (configuration not stated)	9.964
CCCOc1cc(CNC(=O)Nc2ccccn2)ccn1	1.397
Cc1nc[nH]c1CN1CCN(C(=O)CN2CCCC2)[C@H]2CS(=O)(=O)C[C@H]21	15.6
COCCO[C@H]1COCCN(Cc2ccc(OC)cc2)C1	3.008
CS(=O)(=O)CC1(CNc2cc(C#N)c3cc(Cl)ccc3n2)CC1	12.57
Cc1ccc2c(n1)N(CCn1cccn1)CCN(C(=O)CC1CC1)C2	13.75
c1cc(CN2CCC(n3cc(CN4CCCC4)nn3)CC2)cs1	1.375
O=C(C[C@@H]1COC[C@H]2CN(Cc3cccnc3)C[C@@H]12)NCC1CC1	4.945
O=C(CC1CCc2ccccc21)N1CCC(O)(Cn2ccnc2)CC1 (configuration not stated)	15.01
CCN(C)C(=O)c1ccc2c(c1)C(c1nc[nH]n1)CN2S(C)(=O)=O (configuration not stated)	10.84
COc1cc(CNCc2ccc(C(C)O)cc2)cc2c1OCO2 (configuration not stated)	14.92
CCN(CC)C1CCN(C(=O)Nc2cc(F)c(OC)c(F)c2)C1 (configuration not stated)	9.97
O=C(CCc1cccs1)N1CCc2[nH]nc(COc3ccccc3)c2C1	14.11
COc1cccc(-c2c[nH]c(C3CCCN3)n2)c1 (configuration not stated)	12.03
O=C(CCNC(=O)C1CCCC1)NCc1ccccc1Cn1cncn1	18.11
Cc1cc(C(F)(F)F)n2nc(C3CCN(S(=O)(=O)N(C)C)CC3)cc2n1	1.553
Cc1ccc(-c2ncc(C(=O)NCCNC(=O)C(C)C)s2)c(C)c1	10.46
CN(CC(=O)N1CCOCC(CO)C1)Cc1ccc(F)cc1 (configuration not stated)	19.24
CC(C)Nc1nc(N2CCCC2)nc2c1CN(C)CC2	9.589
CN1CCN(CCOc2ccc(NC(=O)c3ccc[nH]3)cc2)CC1	14.25
O=C(O)c1c(-c2cncnc2)ncc2c1CCN(CC1CCOC1)C2 (configuration not stated)	9.971
Cc1ccc(CN2CCC3(CC2)C(=O)N(C)c2ccccc23)s1	22.86
CC(=O)c1c(F)cccc1NC1CCN(S(=O)(=O)C2CC2)CC1	7.229
O=C(CCc1ccsc1)N1CCC(n2cc(CO)nn2)CC1	10.31
Cc1cc(C)nc(NCCC(=O)Nc2ccc(Cn3cncn3)cc2)n1	18.33
Cc1cccc(CN2C[C@@H]3COC[C@]3(CNC(=O)c3ccsc3)C2)n1	17.6
COCC(=O)N1CCC2(CC1)NC(=O)c1ccccc12	5.435
Cc1cc(C(F)(F)F)nn1C(C)C(=O)NN1CCN(C)CC1 (configuration not stated)	13.26
CNc1nc2c(c(C(=O)N3CCCC3)n1)CN(C(=O)c1cccs1)CC2	5.521
Cc1ncoc1C(=O)N1CCOC(CCCC(C)C)C1 (configuration not stated)	3.118
CC(C)CCNC(=O)C1CCN(c2ccc3nnc(C(C)C)n3n2)CC1	10.61
CC1c2ncc(CNC(=O)C3CC3)n2CCN1Cc1ccsc1 (configuration not stated)	2.466
Cn1cnnc1C1CCCN(C(=O)NCCCn2cccn2)C1 (configuration not stated)	22.73
CC(C)N1c2sc(-c3ccccc3)nc2CC1C(=O)NCCCO (configuration not stated)	11.78
CNC(=O)[C@@H]1C[C@@H]2CCN(Cc3ccoc3)C[C@H]2O1	10.34
COc1c(CNC2CCc3c(Cl)cccc32)c(C)nn1C (configuration not stated)	17.56
Cc1ccc2c(c1)SCC(=O)N2CC(=O)N1CCCC1c1cc(C)no1 (configuration not stated)	9.639
COc1cc(C(=O)NCCCc2ccccc2)on1	10.79
O=C(c1ccco1)N1CC[C@H]2C[C@@H](c3nccs3)O[C@@H]2C1	18.73
Cc1ccc2cc(CN(C)Cc3nccs3)c(=O)[nH]c2c1	8.04
OC(COCc1cccs1)CSc1nnc2ccccn12 (configuration not stated)	3.519
Cc1cc2n(n1)CC(CNC1CCN(c3ccc(F)cc3)CC1)CN2 (configuration not stated)	13.75
CC(CNC(=O)c1ccc(Cl)cc1F)N1CCCC1 (configuration not stated)	11.17
Cc1cnn(C2CN(Cc3nnc(Cc4ccccc4)o3)C2)c1	16.09
O=C(CCn1cccn1)NCCOc1ccc2c(c1)OCO2	15.87
COCC(=O)N1CCCC(c2cccc(-n3ccnc3)n2)C1 (configuration not stated)	11.06
CCN1CCOC(CNCc2cnc(C(C)(C)C)s2)C1 (configuration not stated)	12.77
CC(C)n1ccc(C(=O)NCC(O)c2c(Cl)cccc2Cl)n1 (configuration not stated)	8.982
CNS(=O)(=O)c1cccc(CNc2ccc(C(F)(F)F)nn2)c1	13.73
Cc1noc(NCc2cc(F)ccc2F)n1	11.29
CSCCC(C)NC(=O)N(C)Cc1cc(Cl)cn1C (configuration not stated)	14.54
CCOc1ccc(CN(CCOC)c2nc(C)nc3oc(C)nc23)cc1	9.487
CCc1c(C)nc(N)nc1NCCSCc1[nH]cnc1C	5.333
COC(=O)c1ccc(NS(=O)(=O)c2cnc(NC(C)=O)s2)cc1	19.35
CN(CCCc1n[nH]c(N)c1C#N)C(=O)NC1CC1	14.93
O=C(NC1CCCc2nc(N3CCOCC3)ncc21)C1CCCCC1 (configuration not stated)	2.083
O=C(CN(Cc1cccs1)C1CCS(=O)(=O)C1)NCCc1cccs1 (configuration not stated)	3.008
CN(Cc1ccco1)[C@@H]1CN(Cc2nccs2)C[C@@H]2CCCO[C@@H]21	7.843
CN(CC(=O)NC(C)(C)C)C(=O)c1cccn1CCc1ccccc1	10.65
Cc1cc(C2CCCN2C(=O)Nc2cn[nH]c2)on1 (configuration not stated)	9.474

Once more, the final 10:

| Compound | Inhibition |
|---|---|
| `CSCCC(C)NC(=O)N(C)Cc1cc(Cl)cn1C` (configuration not stated) | 14.54 |
| `CCOc1ccc(CN(CCOC)c2nc(C)nc3oc(C)nc23)cc1` | 9.487 |
| `CCc1c(C)nc(N)nc1NCCSCc1[nH]cnc1C` | 5.333 |
| `COC(=O)c1ccc(NS(=O)(=O)c2cnc(NC(C)=O)s2)cc1` | 19.35 |
| `CN(CCCc1n[nH]c(N)c1C#N)C(=O)NC1CC1` | 14.93 |
| `O=C(NC1CCCc2nc(N3CCOCC3)ncc21)C1CCCCC1` (configuration not stated) | 2.083 |
| `O=C(CN(Cc1cccs1)C1CCS(=O)(=O)C1)NCCc1cccs1` (configuration not stated) | 3.008 |
| `CN(Cc1ccco1)[C@@H]1CN(Cc2nccs2)C[C@@H]2CCCO[C@@H]21` | 7.843 |
| `CN(CC(=O)NC(C)(C)C)C(=O)c1cccn1CCc1ccccc1` | 10.65 |
| `Cc1cc(C2CCCN2C(=O)Nc2cn[nH]c2)on1` (configuration not stated) | 9.474 |